Reference: US20180193413A1 (UNIVERSITY OF BRITISH COLUMBIA, published 2018)
No constants are given. Whether binding was seen depends on the method and setting. Binding calls can cover weak binding; strength is not graded here.

B1: SEQ ID NO 17 (protein)
chain: EAEAYVEFDYKDDDDKGHHHHHHGGSDSEVNQEAKPEVKPEVKPETHINLKVSDGSSEIFFKIKKTTPLRRLMEAFAKRQGKEMDSLTFLYDGIEIQADQTPEDLDMEDNDIIEAHREQIGGESGNSCYIYHGVSGICKASCAEDEKAMAGMGVCEGHLCCYKTPW

Legend:
mammalian alpha-amylase [1] = assay: alpha-amylase inhibition assay of uncleaved fusion peptides
mammalian alpha-amylase [2] = assay: alpha-amylase inhibition assay of truncated peptides

| Binder | binding (mammalian alpha-amylase [1]) | binding (mammalian alpha-amylase [2]) |
| --- | --- | --- |
| B1 | binds | – |
| YIYHGVSGI (N-terminal acetyl (Ac), C-terminal amide (NH2)) | – | binds |
| CYIYHGVSGIC (N-terminal acetyl (Ac), C-terminal amide (NH2)) | – | binds |
